# Laboratory results taken from patent US9233237B2, “Apparatus and method for periodic fluid-delivery/fluid-removal cycles in the cranial subarachnoid space to treat cerebral cortical disorders” (NEW YORK UNIVERSITY, priority 2010, dated 2016).
# At least one structure is not confirmed: it was looked up by name or label, or the drawing left a doubt.
# Tested on: monkey
# Assay: EEG effects of drugs delivered through the implanted subdural/subarachnoid sheet body in a monkey
# Assay type: in vivo
# Conditions: right frontal cortex subarachnoid delivery, approx. three months after implantation, EEG recorded 12 minutes after delivery (FIG. 7)
structure (smiles),measurement,value
CC(=O)OCC[N+](C)(C)C [acetylcholine],EEG seizure induction after delivery through the sheet body,"characteristic EEG seizure patterns 302 developed in ipsilateral/treatment area channels 1, 2 and 3 but not in a contralateral/non-treated area channel 4"
